Results are given in words; binding and its absence hold for the method and conditions named. A result given as binding can be weak or reduced; the word gives no strength.
B1: scFv of mAb specific for ectodomain of CD32a (VL and VH from MDE-8) (scFv)
scFv: AIQLTQSPSSLSASVGDRVTITCRASQGINSALAWYQQKPGKAPKLLIYDASSLESGVPSRFSGSGSGTDFTLTISSLQPEDFATYYCQQFNSYPHTFGQGTKLEIKRGSTSGSGKPGSGEGSTKGQVHLVESGGGVVQPGRSLRLSCAASGFTFSSYGMHWVRQAPGKGLEWVAVIWYDGSNYYYTDSVKGRFTISRDNSKNTLYLQMNSLRAEDTAVYYCARDLGAAASDYWGQGTLVTVSSGGGGSGGGGSC
B2: TCO-conjugated scFv specific for CD32a (scFv)
scFv: B1 scFv
modifications: C-terminal cysteine conjugated with Mal-PEG3-TCO

Experiments:
[1] = target: Recombinant ectodomain of human CD32a (human); assay: ELISA
[2] = target: Recombinant ectodomain of human CD32a (human); assay: ELISA, plate coated with 5 ug/ml ectodomain of CD32a, detection with HRP-conjugated protein L

Binder | binding [1] | binding [2]
B1 | binds | binds
B2 | binds | –

From patent US20160339110A1
